Laboratory results as given in publication PMC6053352.
Results are given in words; binding and its absence hold for the method and conditions named. Binding seen in cells or lysates may run through a third protein. Binding can be weak; no strength is given.

Target: T1, CD146 (mouse (endogenous in 10T1/2)) (UniProt Q8R2Y2)
T1 sequence: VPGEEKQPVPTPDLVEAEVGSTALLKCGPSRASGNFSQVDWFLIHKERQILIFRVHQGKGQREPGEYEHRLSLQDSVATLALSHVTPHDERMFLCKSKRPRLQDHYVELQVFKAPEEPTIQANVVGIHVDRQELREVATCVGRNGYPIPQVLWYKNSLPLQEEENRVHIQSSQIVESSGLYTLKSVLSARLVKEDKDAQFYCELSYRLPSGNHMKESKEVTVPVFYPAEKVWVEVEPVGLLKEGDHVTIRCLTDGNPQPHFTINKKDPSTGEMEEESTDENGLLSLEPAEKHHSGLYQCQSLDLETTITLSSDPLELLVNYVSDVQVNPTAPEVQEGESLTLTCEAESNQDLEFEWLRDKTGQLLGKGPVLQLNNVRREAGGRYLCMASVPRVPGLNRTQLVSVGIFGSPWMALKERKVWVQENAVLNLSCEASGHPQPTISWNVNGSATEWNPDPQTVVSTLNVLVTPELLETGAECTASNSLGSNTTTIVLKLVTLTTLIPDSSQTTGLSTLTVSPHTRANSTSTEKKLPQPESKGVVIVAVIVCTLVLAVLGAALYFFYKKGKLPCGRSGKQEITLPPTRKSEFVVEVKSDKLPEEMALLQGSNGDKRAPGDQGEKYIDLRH
Test: co-IP; endogenous proteins in 10T1/2 cells, with PDGF-B (20 ng/mL); also after Cd146-siRNA, Cd146-siRNA plus a Cd146-expressing plasmid, or in the presence of mIgG or AA98 (50 μg/mL); which protein was precipitated is not told

PI3K p110 (mouse (endogenous in 10T1/2)) (enzyme)
binding: binds
